Measurements reported in publication PMC11224403, “Des-acyl ghrelin reduces alcohol intake and alcohol-induced reward in rodents” (Translational Psychiatry, 2024).

The chains behind the UniProt entries cited, without tags or fusion partners. Where a name states a change or a piece, a line headed by the entry shows the natural chain unless it says otherwise.
UniProt Q9UBU3: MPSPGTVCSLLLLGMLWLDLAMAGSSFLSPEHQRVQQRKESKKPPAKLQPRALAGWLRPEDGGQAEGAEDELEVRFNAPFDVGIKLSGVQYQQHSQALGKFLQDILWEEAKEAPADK

Test: Serum DAG by ELISA and correlation with alcohol intake
Parameters: species or system rats
Conditions: n = 12 low, endogenous level, ELISA

Substance: des-acyl ghrelin (GSSFLSPEHQRVQQRKESKKPPAKLQPR; Ghrelin-28 non-acylated; UniProt Q9UBU3 24-51, looked up) [DAG, non-octanoylated form of ghrelin; purchased from Tocris (printed Tocrise Bioscience), dissolved in 0.9% NaCl]
- serum DAG, high vs low alcohol-consuming (female rats, n = 11 high): tended to display higher amounts of serum DAG (t21 = 1.64; P = 0.0585)
- serum DAG, low vs high alcohol-consuming (male rats, n = 12 high): no difference in serum des-acyl-ghrelin (DAG) between male rats consuming low (n = 12) or high (n = 12) amounts of alcohol (t22 = 0.11; P = 0.9137)
